Measured values taken from PubChem BioAssay AID493014 (National Center for Advancing Translational Sciences (NCATS), 2011).
The whole screen tested about 340,000 compounds, of which about 170 (0.05%) were called active. This list was built around the results that the source calls inconclusive (neither active nor inactive); the mix of calls is not that of the screen. Calls follow the shape of the dose curve; as a rule, active = well fitted inhibition curve with a large enough effect in the signal ratio, with a control signal flat (not every such curve was filed as active); inconclusive = small, poorly fitted or top-dose-only effect, or effect the other way, or a change in a side signal; inactive = flat fitted curve, though single readings scatter; the % refers to the signal ratio. A potency beside an inconclusive call is a rough fit, not a confirmed value.

Test: qHTS Assay to Find Inhibitors of Chronic Active B-Cell Receptor Signaling;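 as to activity change, negative = inhibition: plate controls were basal doxycycline-induced cells for no effect and cells given 10 µM MG132 for full effect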
Conditions: ABC-DLBCL IkBa-CBG/CBR reporter, luminescence ratio (green luciferase fused to IkBa over red control in TMD8 lymphoma cells), 4 h; activity change, negative = inhibition: at 46.1 µM (top of the series)
In short: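 TMD8 human ABC-DLBCL cells with doxycycline-inducible IκBα–green luciferase fusion and unfused red luciferase, in 0.5% FBS medium; compounds up to 46 uM, 4 h at 37C. Green/red luminescence ratio, filter-overlap corrected, fitted to concentration-response curves.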
Potency is read from the fitted curve at half-maximal effect.

Row | SMILES | Potency | activity change, negative = inhibition
1 | CC(=O)c1csc(COc2ccc(Cl)cc2)n1 | inconclusive: 8.91 µM [rising, partial curve] | 
2 | CCOc1cccc(CNc2ccc(O)cc2)c1OCc1ccc(Cl)cc1 |  | inactive
3 | N/C(=N\OC(=O)C12CC3CC(CC(C3)C1)C2)c1ccccn1 |  | inconclusive: 11.2%
4 | O=C(Nc1nc(-c2ccc(-c3ccccc3)cc2)cs1)C1CCCO1 (stereo not drawn) | inconclusive: 3.66 µM [falling, partial curve] | 
5 | CC(=O)NS(=O)(=O)c1ccc(NC(=O)CSc2ccccc2)cc1 |  | inconclusive: 6.21%
6 | C/C(=N\NC(=O)c1cccc2ccccc12)c1cccs1 |  | inactive
7 | CC(C)(C)NC(=O)CSc1ncnc2c1nnn2Cc1ccccc1Cl | inconclusive: 17.8 µM [falling, single point] | 
8 | Cc1cc(N/N=C/c2ccc(N(C)C)cc2)c2ccccc2n1 |  | inactive
9 | CCOC(=O)c1ccc(N2C(=O)CC(NC3CCN(C(=O)c4cccc(Cl)c4)CC3)C2=O)cc1 (stereo not drawn) |  | inconclusive: 2.59%
10 | O=C(Nc1cc2ccccc2oc1=O)C1CCCCC1 |  | inconclusive: -19.2%
11 | CC(=O)Oc1ccccc1/C=C1\CCOC1=O | inconclusive: 1.84 µM [rising, full curve, poor fit] | 
12 | COCCNC(=O)CCc1c(C)nc2c(c(C)nn2-c2ccc(C)c(C)c2)c1C |  | inconclusive: -1.56%
13 | N/C(=N\OC(=O)c1cc(Br)ccc1Cl)c1cccnc1 |  | inactive
14 | C=CCCCCCCCCC(=O)N1CCN(c2cc3c(cc2F)c(=O)c(C(=O)O)cn3CC)CC1 |  | inconclusive: 1.58%
15 | CCn1cc(C(=O)O)c(=O)c2cc(F)c(N3CCN(C(=S)NC(=O)c4ccc(Br)cc4)CC3)cc21 |  | inactive
16 | Cc1cc(C)cc(C(=O)NC(CC(N)=O)c2ccc(NCCN3CCOCC3)c([N+](=O)[O-])c2)c1 (stereo not drawn) | inconclusive: 10 µM [falling, partial curve, poor fit] | 
17 | CC12CCC(C(=O)NC3CCCCC3)([C@H](Br)C1=O)C2(C)C (stereo partly drawn) |  | inconclusive: 13.9%
18 | COc1ccccc1C(=O)COC(=O)CN1C(=O)NC2(CCCC2)C1=O | inconclusive: 6.51 µM [falling, partial curve, poor fit] | 
19 | N#Cc1ccc(C(=O)CSc2nnc(-c3ccc(C(F)(F)F)cn3)s2)cc1 | inconclusive: 2.82 µM [cytotoxic, full curve, poor fit] | 
20 | CCCCn1c(N)c(N(CC(C)C)C(=O)C2CC(=O)N(c3ccc(CC)cc3)C2)c(=O)[nH]c1=O (stereo not drawn) |  | inactive
21 | Cc1nnc2c(-c3ccccc3)nc3ccccc3n12 | inconclusive: 9.2 µM [rising, partial curve, poor fit] | 

Row | SMILES | Potency | activity change, negative = inhibition
22 | Cc1cccc(C)c1NC(=O)CN1C(=O)C2CC=CCC2C1=O (stereo not drawn) |  | inactive
23 | Cc1ccc(Nc2nc3ccccc3o2)cc1F | inconclusive: 32.6 µM [falling, single point] | 
24 | O=C(/C(=C/O)N=Nc1ccccc1)c1ccc(Cl)cc1 |  | inconclusive: -2.15%
25 | CCOC(=O)c1ccc(NC(=S)N2CCN(CCN=CC3=C(O)CC(C)(C)CC3=O)CC2)cc1 |  | inconclusive: 19.1%
26 | Cc1ccc(S(=O)(=O)N(C)CC(=O)O/N=C(\N)c2cccc(Br)c2)cc1 |  | inconclusive: -0.326%
27 | COc1ccc(CC(=O)O/N=C(\N)c2ccncc2)cc1 |  | inconclusive: -0.0668%
28 | Cc1ccc2nc(SCC(=O)NCc3ccco3)c(C#N)cc2c1 |  | inconclusive: 12.5%
29 | O=C(NCCNc1ccnc2cc(Cl)ccc12)c1ccccc1F |  | inactive
30 | Cc1cccc(-n2c(C)cc(/C=N\NC(=O)c3ccco3)c2C)c1 | inconclusive: 17.8 µM [falling, single point] | 
31 | O=C(NCCc1c[nH]c2ccccc12)[C@@H]1C[C@H]1[C@@H](NP(=O)(c1ccccc1)c1ccccc1)c1ccccc1 |  | inconclusive: -4.18%
32 | Cc1ccc(NC(=O)c2ccc([N+](=O)[O-])cc2Cl)nc1 |  | inactive
33 | CCCCn1c(-c2cccc(C)c2)nc2cc3[nH]c(=O)c(C(C)C)nc3cc21 | inconclusive: 2.82 µM [rising, partial curve, poor fit] | 
34 | Cc1ccc(-n2nc(C)cc2Nc2ncc(Cl)cc2Cl)cc1 |  | inconclusive: 6.13%
35 | COCCCNc1oc(-c2ccccc2F)nc1C#N |  | inactive
36 | O=Cc1cnc(N2CCN(c3ccccc3)CC2)s1 |  | inconclusive: 14.2%
37 | Cc1cc(C(=O)NC(Cc2ccccc2)C(=O)O)c(C)o1 (stereo not drawn) |  | inactive
38 | Cc1cccn2c(=O)c3cc(S(=O)(=O)c4ccccc4)c(=N)n(Cc4ccc(F)cc4)c3nc12 |  | inconclusive: -9.88%
39 | Cc1ccc(-n2nc3c(c2NC(=O)c2c(F)cccc2Cl)CS(=O)(=O)C3)cc1C |  | inconclusive: 0.753%
40 | COCCN(C(=O)COC(=O)/C=C/c1cccc(OC)c1)c1c(N)n(CC(C)C)c(=O)[nH]c1=O |  | inactive
41 | COc1ccc(C(=O)Nc2ccc(NS(=O)(=O)c3ccccc3)cc2)cc1OC |  | inconclusive: -14.7%
42 | Cc1ccc(N2C(=O)c3ccccc3C2O)nc1 (stereo not drawn) |  | inconclusive: -2.76%

Record cards, from the list above:
`Cc1ccc(-n2nc(C)cc2Nc2ncc(Cl)cc2Cl)cc1` is listed as activity change, negative = inhibition: inconclusive: 6.13%
`COCCCNc1oc(-c2ccccc2F)nc1C#N` is listed as activity change, negative = inhibition: inactive
`Cc1cccc(-n2c(C)cc(/C=N\NC(=O)c3ccco3)c2C)c1` is listed as Potency: inconclusive: 17.8 µM [falling, single point]
`Cc1cc(C(=O)NC(Cc2ccccc2)C(=O)O)c(C)o1` (stereo not drawn) is listed as activity change, negative = inhibition: inactive

The listing continues.

Row | SMILES | Potency | activity change, negative = inhibition
43 | COc1cc(C)c(Cl)cc1S(=O)(=O)N1CCSC1 |  | inconclusive: 3.36%
44 | CCOC(=O)C1(S(=O)(=O)c2ccc(Cl)cc2)CCN(Cc2ccc(Cl)cc2)CC1 |  | inactive
45 | Cc1ccccc1CN1CCNC(=O)C1CC(=O)NC1CCCCCCC1 (stereo not drawn) |  | inactive
46 | Cc1ccc(OCC(=O)N2CCN(c3nnc(-c4ccc(C)cc4)c4ccccc34)CC2)cc1 |  | inconclusive: 1.58%
47 | CCc1nnc(NC(=O)CCN(c2ccc(C)cc2)S(=O)(=O)c2ccccc2)s1 |  | inconclusive: -2.67%
48 | CC(=O)NCCc1nc2cc(NC(=O)c3ccccc3)ccc2n1C | inconclusive: 35.5 µM [rising, single point] | 
49 | Cc1cc(C)cc(-n2nnn(C3C/C(=N/NC(N)=S)C4OCC3O4)c2=S)c1 (stereo not drawn) |  | inconclusive: -18.1%
50 | Cc1ccc(/C=C/C(=O)O)cc1S(=O)(=O)N1CCc2ccccc2C1 |  | inactive
51 | Cc1ccccc1NC(=O)C1C2/C=C\CCCCC21 (stereo not drawn) |  | inconclusive: -1.29%
52 | CCn1nc(C)c(NC(=O)CCSc2nc(-c3ccco3)cc(C(F)(F)F)n2)c1C |  | inconclusive: -8.18%
53 | O=C1CCCc2[nH]nc(-c3cccnc3)c21 |  | inconclusive: 1.15%
54 | CCN(CC)S(=O)(=O)c1ccc(OC)c(NC(=O)c2ccc(N3CCCC3=O)cc2)c1 |  | inconclusive: 3.22%
55 | O=S(=O)(NCc1cccnc1)c1ccc(Cl)c2ccccc12 |  | inconclusive: -2.35%
56 | CCCn1c(-c2nonc2N)nc2ccccc21 |  | inconclusive: 21.9%
57 | CC1CCCCN1Cc1ccc(-c2nn[nH]n2)cc1 (stereo not drawn) |  | inconclusive: 1.25%
58 | N#Cc1c(NC(=S)NC(=O)Cc2cccs2)sc2c1CCCCC2 |  | inactive
59 | O=C(CSc1cn(CCNC(=O)c2cccs2)c2ccccc12)NC1CCCCC1 |  | inconclusive: -1.88%
60 | CC1CC(C)(C)n2c(O)c(N=NC(N)=S)c3cccc1c32 (stereo not drawn) | inconclusive: 5.62 µM [falling, single point] | 
61 | CCCC(=O)Nc1ccc2nc(SCC(=O)Nc3ccc(N4CCOCC4)c(Cl)c3)sc2c1 | inconclusive: 3.98 µM [falling, partial curve, poor fit] | 
62 | COc1ccc(S(=O)(=O)Nc2ccc3c(c2)CC(=O)N([C@@H](C)CO)C[C@H](C)[C@@H](CN(C)S(=O)(=O)c2ccc(F)cc2)O3)cc1 |  | inconclusive: -2.14%
63 | C=CCNc1ncnc2c1[nH]c1ccc(C)cc12 | inconclusive: 6.51 µM [rising, full curve, poor fit] | 

Row | SMILES | Potency | activity change, negative = inhibition
64 | O=c1[nH]ncc(N/N=C\c2cccnc2)c1Cl |  | inconclusive: 6.43%
65 | CCN(CC)c1ccc(/C=C/C(=O)c2cccnc2)cc1 |  | inactive
66 | C=CCS/C(=N\n1cnc2ccccc2c1=O)N(CC)CC |  | inconclusive: 23.4%
67 | Cc1ccc(CCNC(=O)CCn2nc(-c3ccc(C)cc3)ccc2=O)cc1 |  | inconclusive: -12.4%
68 | COc1cc(OC)c2c(-c3cccc(-c4ccc(OC(F)(F)F)cc4)c3)cc(=O)oc2c1 |  | inconclusive: -4.63%
69 | O=C(O)CNS(=O)(=O)c1ccc2c(c1)Cc1cc(S(=O)(=O)NCC(=O)O)ccc1-2 |  | inactive
70 | Cc1cnn(CCC(=O)NNC(=S)Nc2ccccc2)c1 |  | inactive
71 | O=C(COc1ccc([N+](=O)[O-])cc1)Nc1cccc2nsnc12 |  | inactive
72 | CCOc1ccc(NC(N)=O)cc1OCC |  | inconclusive: 9.55%
73 | O=C(NNC(=O)c1cc(S(=O)(=O)N2CCCCC2)ccc1Cl)c1ccccc1O | inconclusive: 23.1 µM [falling, partial curve, poor fit] | 
74 | COc1cccc2cc(-c3nc4ccccc4[nH]3)c(=O)oc12 | inconclusive: 14.1 µM [falling, partial curve] | 
75 | c1ccc2c(N3CCCC3)nc(-c3ccncc3)nc2c1 |  | inactive
76 | COc1cc2c(C#CCO)c(-c3ccc(C#N)cc3)oc(=O)c2cc1OC |  | inconclusive: -1.89%
77 | Cc1ccc2nc(-c3cccs3)oc(=O)c2c1 |  | inconclusive: 491%
78 | Cc1nc2ccc(S(=O)(=O)NC(C(=O)NCc3ccc4c(c3)OCO4)C(C)C)cc2s1 (stereo not drawn) |  | inconclusive: 0.188%
79 | O=C(c1cc(COc2c(F)cccc2F)on1)N1CCC(c2ccncc2)CC1 |  | inconclusive: 6.41%
80 | CCOC(=O)/C(C#N)=N/Nc1ccccc1C#N |  | inconclusive: 6.71%
81 | O=C(NC(=O)N1CCN(c2ccccc2)CC1)c1ccc(Cl)cc1 |  | inconclusive: -4.46%
82 | COCc1cc(C)nc(OCC(=O)N/N=C/c2ccccc2O)c1C#N |  | inactive
83 | Cc1cc(NC(=O)CC2Oc3ccccc3NC2=O)ccc1Br (stereo not drawn) |  | inconclusive: -0.419%
